# Test results taken from the supplement of paper PMC12823440, “Inhibitors supercharge kinase turnover through native proteolytic circuits” (Nature, 2025).
# The chains behind the UniProt entries cited, without tags or fusion partners. Where a name states a change or a piece, a line headed by the entry shows the natural chain unless it says otherwise.
# UniProt P29597: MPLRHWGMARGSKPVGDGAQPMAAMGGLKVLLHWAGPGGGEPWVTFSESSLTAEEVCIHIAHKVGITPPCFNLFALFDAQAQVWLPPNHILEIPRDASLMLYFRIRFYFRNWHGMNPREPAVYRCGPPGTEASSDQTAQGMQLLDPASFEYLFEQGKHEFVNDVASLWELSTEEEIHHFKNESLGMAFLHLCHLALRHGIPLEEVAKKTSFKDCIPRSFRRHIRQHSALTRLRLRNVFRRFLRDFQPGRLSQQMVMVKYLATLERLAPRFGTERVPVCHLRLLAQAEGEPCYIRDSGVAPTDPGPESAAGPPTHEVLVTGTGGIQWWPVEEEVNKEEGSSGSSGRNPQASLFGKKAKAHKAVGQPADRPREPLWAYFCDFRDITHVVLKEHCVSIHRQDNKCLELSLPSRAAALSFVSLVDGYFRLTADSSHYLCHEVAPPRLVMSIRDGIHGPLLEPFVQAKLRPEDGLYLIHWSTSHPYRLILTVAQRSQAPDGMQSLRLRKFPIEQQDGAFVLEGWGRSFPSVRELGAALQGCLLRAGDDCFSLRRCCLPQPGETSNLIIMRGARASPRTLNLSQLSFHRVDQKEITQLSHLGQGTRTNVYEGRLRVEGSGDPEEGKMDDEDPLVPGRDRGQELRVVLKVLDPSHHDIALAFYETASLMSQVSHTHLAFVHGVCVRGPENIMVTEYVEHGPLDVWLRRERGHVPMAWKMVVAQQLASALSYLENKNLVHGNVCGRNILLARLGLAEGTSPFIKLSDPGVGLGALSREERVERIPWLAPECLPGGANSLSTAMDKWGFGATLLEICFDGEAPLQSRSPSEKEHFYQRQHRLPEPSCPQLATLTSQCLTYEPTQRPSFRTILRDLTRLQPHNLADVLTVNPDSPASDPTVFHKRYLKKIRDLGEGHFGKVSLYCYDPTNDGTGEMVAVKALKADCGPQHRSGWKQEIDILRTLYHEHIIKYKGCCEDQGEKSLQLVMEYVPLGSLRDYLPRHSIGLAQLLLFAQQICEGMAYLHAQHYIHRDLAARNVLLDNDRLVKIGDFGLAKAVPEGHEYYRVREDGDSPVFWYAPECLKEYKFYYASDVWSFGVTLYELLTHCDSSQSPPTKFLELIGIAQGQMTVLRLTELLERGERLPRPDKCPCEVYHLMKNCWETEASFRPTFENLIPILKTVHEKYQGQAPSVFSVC
# Counter-ions that a name gives are not always drawn. The list shows a part of the results. Hit calls seldom repeat between salt and free forms of one compound.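 Kinases, fused to nanoluciferase, were expressed in K562 cells; luminescence was measured every 4 h from 2 to 18 h as percent of control (DMSO = 100%, positive control = 0%). A time point is decreased if signal falls significantly (2 sigma). Hits were called by the authors by a rule that is not shown; the count of time points alone does not decide it.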
# Target: TYK2 (UniProt P29597)
# Test: number of time points (of 5) at which kinase-Nluc abundance scored as decreased, DMSO-normalised (count); higher = more persistent destabilization
# Settings: K562; 2-18 h
row,Structure (SMILES),number of time points
1,COc1ccc(Br)c(C=O)c1O [6-Bromo-2-hydroxy-3-methoxybenzaldehyde] (10 µM),0
2,O=C1C=CC2=C3c4cc(O)c(O)cc4CC3(O)COC2=C1O (centres undefined) [Hematein] (10 µM),0
3,Cc1cccc(CC(=O)N2CCc3c2ccc(-c2cn(C)c4ncnc(N)c24)c3F)n1 (10 µM),0
4,COCCOc1cnc2ccn([C@H](C)c3nnc4c(F)cc(-c5cnn(C)c5)cn34)c(=O)c2c1 (10 µM),0
5,Cn1cc(C2=C(c3ccc(Cl)cc3Cl)C(=O)NC2=O)c2ccccc21 (10 µM),0
6,COc1cc(N2CCC(N3CCN(C)CC3)CC2)ccc1Nc1ncnc(Nc2ccccc2S(=O)(=O)C(C)C)n1 (10 µM),0
7,COc1c(Nc2ncc(Cl)c(N[C@H]3[C@@H](C(N)=O)[C@@H]4C=C[C@H]3C4)n2)ccc2c1CC[C@@H](N1CCOCC1)CC2 (10 µM),0
8,Cc1ccc(NC(=O)N2CCN(c3nc(N)nc4sc(-c5cccnc5)nc34)CC2)cc1 [PI4KIII beta inhibitor 3] (10 µM),0
9,CNc1cc2c(Nc3cccc(Br)c3)ncnc2cn1 (10 µM),0
10,CC(C)n1c(CO)nc2c(F)cc(-c3nc(Nc4ccc(CN5CCNCC5)cn4)ncc3F)cc21 (10 µM),4
11,CN1CCC(Nc2ccc(C(=O)Nc3cc(-c4ccc5c(c4)OCO5)[nH]n3)cc2)CC1 (10 µM),0
12,CNC(=O)CN1CCC(Oc2cc3c(Nc4cccc(Cl)c4F)ncnc3cc2OC)CC1 [Sapitinib] (10 µM),0
13,O=C(O)c1c[nH]c2cc(Cl)c(-c3ccc(C4(O)CCC4)cc3)cc12 (10 µM),0
14,COc1cc(N2CCC(O)CC2)ccc1Nc1nc(Nc2ccccc2S(=O)(=O)C(C)C)c2[nH]cnc2n1 (10 µM),0
15,O=c1c(O)c(-c2ccc(O)c(O)c2)oc2cc(O)c(O)c(O)c12 [Quercetagetin] (10 µM),0
16,Cc1ncsc1-c1ccc(CNC(=O)[C@@H]2C[C@@H](O)CN2C(=O)[C@@H](NC(=O)COCCOc2ccc(-c3cc(Nc4ccc(OC(F)(F)F)cc4)ncn3)cc2)C(C)(C)C)cc1 (2.5 µM),3
17,COc1cc(Nc2ccnc3ccc(Br)cc23)cc(OC)c1OC (2.5 µM),1
18,Cc1ccc2c(NS(=O)(=O)c3ccccc3Cl)cccc2c1Oc1ncccc1-c1ccnc(N[C@H]2CCCNC2)n1 (2.5 µM),0
19,CC(C)c1cc2c(c(O)c1O)[C@@]13CCCC(C)(C)[C@@H]1C[C@@H]2OC3=O [Carnosol] (2.5 µM),0
20,Cc1nc2c(NCc3cccc(S(C)(=O)=O)c3)nccn2c1-c1ccc(O)c(F)c1 (10 µM),0

row,Structure (SMILES),number of time points
1,CC(C)n1cnc2c(Nc3cccc(Cl)c3)nc(N[C@H]3CCCC[C@@H]3N)nc21 (2.5 µM),0
2,O=c1cc(N2CCOCC2)oc2c(-c3cccc4c3sc3ccccc34)cccc12 (10 µM),0
3,C[C@@H]1COC(Nc2ccc3ncnc(Nc4ccc(OCc5nccs5)c(Cl)c4)c3c2)=N1 [Varlitinib] (10 µM),0
4,Cc1cncc2cccc(S(=O)(=O)N3CCCNC[C@@H]3C)c12 [H-1152 (dihydrochloride)] (10 µM),0
5,CCC[C@H](C)Oc1nc(N)c2[nH]c(=O)n(CCCCCN3CCCCC3)c2n1 (10 µM),0
6,CC(C)(Oc1ccc(Cl)cc1)C(=O)Nc1ccc(OCc2ccc(C#N)cc2)cc1 [AMPK activator 4] (10 µM),0
7,Cc1cc(N2CCOCC2)ccc1Nc1nc(NC2CCCCC2)c2[nH]cnc2n1 (10 µM),0
8,CC(ONC(=O)c1cc(C(F)(F)F)cc(C(F)(F)F)c1)C(=O)Nc1ccc(Cl)cc1 (centres undefined) (2.5 µM),5
9,O=S(=O)(c1ccc(O)cc1O)N1Cc2cc(O)cc(O)c2C1 (10 µM),0
10,CN1CCN(c2ccc(-n3cc(-c4ccncc4OCC4CCNCC4)cn3)cc2)CC1 [MELK-8a (hydrochloride)] (10 µM),4
11,CCCCC(=O)OCC(=O)[C@]1(O)Cc2c(O)c3c(c(O)c2[C@@H](O[C@H]2C[C@H](NC(=O)C(F)(F)F)[C@H](O)[C@H](C)O2)C1)C(=O)c1c(OC)cccc1C3=O [Valrubicin] (10 µM),0
12,CC(C)=CCC[C@](C)(O[C@@H]1O[C@H](CO[C@@H]2O[C@H](CO)[C@@H](O)[C@H](O)[C@H]2O)[C@@H](O)[C@H](O)[C@H]1O)[C@H]1CC[C@]2(C)[C@@H]1[C@H](O)C[C@@H]1[C@@]3(C)CC[C@H](O[C@@H]4O[C@H](CO)[C@@H](O)[C@H](O)[C@H]4O[C@@H]4O[C@H](CO)[C@@H](O)[C@H](O)[C@H]4O)C(C)(C)[C@@H]3CC[C@]12C [Ginsenoside Rb1] (10 µM),0
13,O=c1cc(-c2ccc(O[C@@H]3O[C@H](CO)[C@@H](O)[C@H](O)[C@H]3O)cc2)oc2cc(O)c([C@@H]3O[C@H](CO)[C@@H](O)[C@H](O)[C@H]3O[C@@H]3OC[C@H](O)[C@H](O)[C@H]3O)c(O)c12 [Vaccarin] (10 µM),0
14,Nc1ccc(Sc2nc3ccccc3s2)c(Cl)c1 [KRAS inhibitor-9] (10 µM),0
15,COc1ccc2cc1Oc1ccc(cc1)C[C@H]1c3cc(c(OC)cc3CCN1C)Oc1c(O)c(OC)cc3c1[C@H](C2)N(C)CC3 [Fangchinoline] (2.5 µM),0
16,Nc1nccc(Oc2ccc3c(C(=O)Nc4cccc(C(F)(F)F)c4)cccc3c2)n1 (10 µM),1
17,CN1C(=O)N[C@@H](Cc2c[nH]c3c(Cl)cccc23)C1=O [Necrostatin 2 (S enantiomer)] (10 µM),0
18,Cc1ncc(-c2cc(F)c(O)c(F)c2)cc1-c1cc(F)c(O)c(F)c1 (10 µM),0
19,N=C(NC(=N)N1CCCC1)Nc1ccc(OC(F)(F)F)cc1 (10 µM),0

# A second format for some results above.
row	Structure (SMILES)	number of time points
12	CNC(=O)CN1CCC(Oc2cc3c(Nc4cccc(Cl)c4F)ncnc3cc2OC)CC1 [Sapitinib] (10 µM)	0
19	CC(C)c1cc2c(c(O)c1O)[C@@]13CCCC(C)(C)[C@@H]1C[C@@H]2OC3=O [Carnosol] (2.5 µM)	0
